According to PubChem BioAssay AID1471 (National Center for Advancing Translational Sciences (NCATS), 2008):
About 310 (0.13%) of roughly 230,000 compounds were called active. The shares of active, inactive and inconclusive entries below differ from those in the screen. Calls follow the shape of the dose curve; as a rule, active = well fitted activation curve with a large enough effect; inconclusive = small, poorly fitted or top-dose-only effect; inactive = no such curve, though single readings can be large or run the other way. A potency beside an inconclusive call is a rough fit, not a confirmed value.
Potency is read from the fitted curve at half-maximal effect.

Test: qHTS Multiplex Assay to Identify Dual Action Probes in a Cell Model of Huntington: Cytoprotection (ATP); also: nearly all actives have a fitted effect of over 45% in size;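 as to cytoprotection (ATP increase): toxic huntingtin expression switched on by the ecdysone agonist tebufenozide; % of control where 0% means no effect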
Conditions: PC12 HTT-Q103 induced, ATP luminescence, 40 h; cytoprotection (ATP increase): at 56.4 µM (top of the series)
In short: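 Compounds added alongside 100 nM tebufenozide, which induces toxic Q103 huntingtin exon 1-GFP in stable PC12 cells; surviving cells quantified by luminescent ATP measurement. Medium: phenol red-free DMEM, 5% equine and 5% calf serum.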
In the case of COC1CC(OC2CCC3(C)C(CCC4C3CCC3(C)C(C5=CC(=O)OC5)C(OC(C)=O)CC43O)C2)OC(C)C1OC1OC(COC2OC(CO)C(O)C(O)C2O)C(O)C(O)C1O (stereo not given), the Potency is reported as inconclusive: 0.447 µM [activator, single point]. In the case of O=C(CNC(=O)c1ccc(Cl)cc1)Nc1ccc(Br)cc1C(=O)c1ccccc1, the Potency is reported as inconclusive: 0.794 µM [activator, single point]. For CC1(C)C(O)CC(O)[C@]2(C)C1CC(O)[C@]1(C)C2CC[C@@]2(C)C(c3ccoc3)OC(=O)C3O[C@]312 (stereo not given in full), the “cytoprotection (ATP increase)” value was inactive: 3.51%. With CN1C[C@H](CO)C=C2c3cccc4[nH]cc(c34)C[C@@H]21 the Potency was inconclusive: 14.1 µM [activator, single point]. For O=C(c1ccccc1)C(CN1CCCC1)c1ccccc1 (stereo not given), the Potency was inconclusive: 4.47 µM [activator, single point]. With Fc1ccccc1CCNCc1cccc(Cl)c1Cl the Potency was inconclusive: 35.5 µM [activator, single point]. In the case of Cc1nc(N)sc1CCN, the Potency is reported as inconclusive: 1 µM [activator, single point]. With COc1cccc2c1C13CC[N+]4(CC5CC5)CO[C@]1(CCC(=O)C3)C4C2 the Potency was inconclusive: 5.01 µM [activator, single point]. In the case of O=C1NC(=O)N(c2ccc3c(c2)OCO3)C(=O)/C1=C/c1ccc(N2CCCC2)o1, the Potency is reported as inconclusive: 0.562 µM [activator, full curve]. In the case of CC[C@@]1(c2ccc(N)cc2)CCC(=O)NC1=O, the Potency is reported as inconclusive: 0.0501 µM [activator, partial curve, poor fit]. In the case of CC[C@@H](CO)NC(=O)[C@H]1C=C2c3cccc4c3c(cn4C)C[C@H]2N(C)C1, the Potency is reported as inconclusive: 0.447 µM [activator, partial curve]. With [N-]=[N+]=CC(=O)OCC(N)C(=O)O (stereo not given) the Potency was inconclusive: 1.12 µM [activator, single point]. In the case of CCN(CC)S(=O)(=O)N1CCC(C(=O)N2CCC3(CC2)OCCO3)CC1, the Potency is reported as inconclusive: 0.708 µM [activator, single point]. In the case of NCCc1ccc(O)cc1, the Potency is reported as inconclusive: 3.55 µM [activator, single point]. In the case of COc1cc2c(cc1OC)[C@H](C)NCC2, the Potency is reported as inconclusive: 0.794 µM [activator, partial curve, poor fit]. With CC(C)CN1CC[C@@]2(CCCN(C(=O)Oc3ccccc3)C2)C1 the Potency was inconclusive: 6.31 µM [activator, partial curve]. For NC[C@@H](CC(=O)O)c1ccc(Cl)cc1, the Potency was inconclusive: 0.158 µM [activator, full curve]. For CC1=NN(c2ccccc2)C(=O)[C@@H]1N=Nc1ccc([As](=O)(O)O)c(O)c1, the cytoprotection (ATP increase) was inactive: -4.43% [at 10 µM]. For COC(=O)C1=CCCN(C)C1, the Potency was inconclusive: 8.91 µM [activator, partial curve]. With O=c1[nH]c(=S)n(CCC2=CCCCC2)c(O)c1C=NC1CCN(Cc2ccccc2)CC1 the Potency was inconclusive: 5.62 µM [activator, partial curve]. In the case of CC[C@]1(C2=NCCN2)Cc2ccccc2O1, the Potency is reported as inconclusive: 7.94 µM [activator, full curve]. With CC[C@H](CO)NC(=O)[C@@H]1C=C2c3cccc4c3c(cn4C)C[C@@H]2N(C)C1 the cytoprotection (ATP increase) was inactive: -5.38% [at 1.9 µM]. For Oc1ccc(/C=N/NP(=S)(c2ccccc2)c2ccccc2)cc1O, the Potency was inconclusive: 3.98 µM [activator, partial curve, poor fit]. In the case of CCN(CCNc1ccc([N+](=O)[O-])c2cccnc12)S(=O)(=O)c1ccccc1, the Potency is reported as inconclusive: 5.62 µM [activator, single point]. In the case of CCCOc1ccc2[nH]cc(C3=CCNCC3)c2n1, the “cytoprotection (ATP increase)” value is reported as inactive: -14.6%. For COc1ccc(Cc2nccc3cc(OC)c(OC)cc23)cc1OC, the Potency was inconclusive: 0.251 µM [activator, full curve]. In the case of Oc1cc(Cl)ccc1Oc1ccc(Cl)cc1Cl, the Potency is reported as active: 7.08 µM. With O=C(O)[C@@H](Br)[C@H](Br)C(=O)O the cytoprotection (ATP increase) was inactive: 8.69% [at 10 µM]. In the case of Cc1cccc(N2C(=O)NC(=O)/C(=C\c3cnc(-c4ccccc4)nc3)C2=O)c1, the cytoprotection (ATP increase) is reported as inactive: 25.2% [at 10 µM]. In the case of COc1cc(/C=C2\C(=O)NC(=O)N(c3ccccc3)C2=O)cc(OC)c1O, the Potency is reported as inconclusive: 0.708 µM [activator, partial curve]. With Cc1ccc2c(c1)C1CN(C)CCC1N2C(=S)Nc1cccnc1 (stereo not given) the Potency was inconclusive: 8.91 µM [activator, single point]. For CCN1CC=C(c2c[nH]c3ccccc23)CC1, the Potency was inconclusive: 4.47 µM [activator, single point]. In the case of CN(CCCCC(=O)/C=N/O)Cc1ccccc1 (tested in a mixture with another compound), the “cytoprotection (ATP increase)” value is reported as inactive: 3.04%. In the case of C=C1C(=O)O[C@H]2[C@H]1[C@H](OC(=O)CC(=O)O[C@@H]1C[C@@H](C)[C@@H]3C=CC(=O)[C@@]3(C)[C@H]3OC(=O)C(=C)[C@H]13)C[C@@H](C)[C@H]1C=CC(=O)[C@]12C, the Potency is reported as active: 4.47 µM. For O=[N+]([O-])c1c2ccccc2cc2ccccc12, the Potency was inconclusive: 39.8 µM [activator, single point]. In the case of CC(C)CC(C)Nc1ccc(Nc2ccccc2)cc1 (stereo not given), the Potency is reported as inconclusive: 39.8 µM [activator, single point]. In the case of O=C1/C(=C\c2cc3c(cc2Cl)OCO3)N2CCC1CC2, the cytoprotection (ATP increase) is reported as inactive: 14.3% [at 10 µM]. With CN1CCC2=C[C@H](O)[C@@H]3OC(=O)c4cc5c(cc4[C@H]3[C@H]21)OCO5 the Potency was inconclusive: 6.31 µM [activator, single point]. With CC(=O)Nc1ccc([As](=O)(O)c2ccc([N+](=O)[O-])cc2)cc1 the cytoprotection (ATP increase) was inactive: -2.82% [at 10 µM]. With CC(C)(O)C1C2OC(=O)C1[C@]1(O)C[C@H]3O[C@]34C(=O)O[C@H]2[C@]14C (stereo not given in full) (tested in a mixture with another compound) the Potency was inconclusive: 0.0891 µM [activator, full curve, poor fit].
